From patent US20250109127A1, “METHODS OF USE OF PHENOXYPROPYLAMINE COMPOUNDS TO TREAT DEPRESSION” (Minerva Neurosciences, Inc., priority 2013, published 2025)
“And” between values parts separate entries of the source, which are not always exact repeats. Identical values can stand only once. Counter-ions that a name gives are not always drawn. This continues a long series; more values of the same kind are listed elsewhere.

Tested on: norepinephrin release in the rat prefrontal cortex
Experiment: Microdialysis: norepinephrine release in prefrontal cortex after I.P. administration
Type: in vivo
Settings: hydrochloride; for NOREPINEPHRIN (% of respective basal), individual animal: 0.3 mg/kg I.P., c2-c9 = R#11,12,18,23,29,30,17,24; for Norepinephrin release, individual animals: 3 mg/kg IP, per animal R#15,16,21,22,27,28,09,10; for NOREPINEPHRIN in dialysate, individual animals: SON-117 0.1 mg/kg I.P., 0.1 mg/kg
Procedure: The aim of the study was to evaluate, using microdialysis, the effects of an intraperitoneal (I.P.) administration in rats of three different doses of SON-117 on dopamine and its metabolites, serotonin and its metabolite (5-HIAA), and norepinephrine levels in prefrontal cortex.
Thirty-two adult male Wistar rats were used for the whole study (4 groups of eight animals planned for the study, Table 1).
Surgery was performed on rats weighing about 300 g at the beginning of the experiments. Rats were anaesthetized with Ketamine (50 mg/kg) & Xylazine (15 mg/kg) by intramuscular administration. The animals were placed in a stereotaxic apparatus in the flat-skull position at a constant setting of −3.3 mm between ear bars and the incisor bar. The animals were treated with a local anesthesic (xylocaine 1%, Astra Zeneca) and an analgesic (Temgesic, from Schering Plough, 0.05 mg/kg, s.c.). A rostrocaudal midline incision was made with a lancet to expose the dorsal skull surface. The “stereotaxic zero” was defined by the Bregma in accordance with Paxinos and Watson's atlas (1986). A hole was drilled in the skull with a drill and the meninges were pierced with a sterile needle to implant a CMA12 guide cannula which later received the dialysis probe.
Coordinates used for implanting guide cannula in prefrontal cortex from Bregma were anteroposterior 3.7 mm, mediolateral 0.8 mm, and dorsoventral −2 mm (top of the probe was at −5 mm). The guide cannula was fixed to the skull with two stainless steel screws (1.88 mm outside diameter) anchored. An application of dental cement was added. A plastic collar allowed each animal to be tethered to a Swivel assembly of the CMA 120 awake animal system. Following surgery, rats were kept in individual cages and allowed to recover for a minimum of 3-5 days before the experimentation. The rats were handled and put in plastic bowl for 10 min at least every day to habituate the animals to their new environment for the dialysis. An I.P. administration with saline was also performed every day.
Dialysis probes (CMA12/3 mm, membrane, 20 kD cut-off, Carnegie Medicine, Stockholm, Sweden), were carefully washed before inserting into the guide cannula. The wash was performed with the artificial cerebrospinal fluid (aCSF) medium (NaCl 147 mM, KCl 2.7 mM, CaCl2 1.2 mM, MgCl2 0.85 mM) at room temperature. The dialysis system was then equilibrated at 20° C. at a perfusion rate of 1 μl/min with a Carnegie pump (CMA100). All catheters (FEP tubing, internal volume of 1.2 μl/10 cm, and tubing adaptors) used for microdialysis were treated in the same conditions.
The probes duly prepared were inserted into the guide cannula and the CMA120 Swivel assembly secured to the animal using a plastic collar. Flow through the dialysis probe with aCSF was maintained at a rate of 1 μl/min during the whole experimentation. The first four fractions (corresponding to 2 hours) were discarded to avoid the effects of parenchymal disturbance and to ensure that an approximate steady-state level was reached. Fractions were then collected over a period of 8.5 h during which time the animals remained quiet. The dialysates were automatically collected with an autosampler (microfraction collector CMA 140, Carnegie Medicin) and stored at −80° C. until analysis. […] Perfusion was then maintained for 7 hours with aCSF. The dialysates (30 μl) were collected into 300 μl vials, transferred into dry ice and then kept frozen (−80° C.) until analysis. Frozen samples were shipped to a partner for analysis. At the end of the microdialysis study, a PBS with colored ink was perfused through the probe in order to visualize the dialyzed area.
Catecholamine assay: Concentrations of dopamine, DOPAC, HVA, 5-HIAA, 5-HT, and norepinephrin were determined for each sample by HPLC coupled with electrochemical detection. […]

[1] = T-30 min-T0 (before administration)
[2] = T-1 h 30-T-1 h (before administration)
[3] = T-1 h-T-30 min (before administration)

Cc1nnc(-c2cc3c(OC[C@@H](O)CN4CCC(c5ccc(Cl)c(Cl)c5)CC4)cccc3o2)o1 [SON-117, (S)-1-(4-(3,4-dichlorophenyl)piperidino)-3-(2-(5-methyl-1,3,4-oxadiazol-2-yl)benzo(b)furan-4-yloxy)-2-propanol hydrochloride]
NOREPINEPHRIN (% of respective basal), individual animal (T6 h 30-T7 h): 106.88 % of respective basal and 177.51 % of respective basal and 198.02 % of respective basal and 124.61 % of respective basal and 145.21 % of respective basal and 117.13 % of respective basal and 160.58 % of respective basal and 97.71 % of respective basal | NOREPINEPHRIN (% of respective basal), individual animal (T6 h-T6 h 30): 155.95 % of respective basal and 92.51 % of respective basal | NOREPINEPHRIN (% of respective basal), individual animal [1]: 91.05 % of respective basal and 99.72 % of respective basal and 92.64 % of respective basal and 93.47 % of respective basal and 105.78 % of respective basal and 79.20 % of respective basal and 104.93 % of respective basal and 91.00 % of respective basal | NOREPINEPHRIN (% of respective basal), individual animal [2]: 104.69 % of respective basal and 97.58 % of respective basal and 106.89 % of respective basal and 110.24 % of respective basal and 96.60 % of respective basal and 109.72 % of respective basal and 102.28 % of respective basal and 114.98 % of respective basal | NOREPINEPHRIN (% of respective basal), individual animal [3]: 104.24 % of respective basal and 102.69 % of respective basal and 100.47 % of respective basal and 96.29 % of respective basal and 97.62 % of respective basal and 111.08 % of respective basal and 92.78 % of respective basal and 94.02 % of respective basal | Norepinephrin release, individual animals (T0-T30 min): 83.80 % of respective basal and 117.15 % of respective basal and 86.45 % of respective basal and 99.99 % of respective basal and 75.18 % of respective basal and 99.40 % of respective basal and 105.73 % of respective basal and 92.56 % of respective basal | Norepinephrin release, individual animals (T6 h 30-T7 h): 107.15 % of respective basal and 158.12 % of respective basal and 46.32 % of respective basal | Norepinephrin release, individual animals [1]: 96.67 % of respective basal and 105.91 % of respective basal and 99.20 % of respective basal and 98.51 % of respective basal and 90.82 % of respective basal and 92.21 % of respective basal and 94.30 % of respective basal and 101.73 % of respective basal | Norepinephrin release, individual animals [2]: 101.41 % of respective basal and 100.13 % of respective basal and 101.32 % of respective basal and 97.97 % of respective basal and 103.83 % of respective basal and 112.21 % of respective basal and 103.39 % of respective basal and 95.91 % of respective basal | Norepinephrin release, individual animals [3]: 101.93 % of respective basal and 93.96 % of respective basal and 99.48 % of respective basal and 103.52 % of respective basal and 105.36 % of respective basal and 95.58 % of respective basal and 102.31 % of respective basal and 102.36 % of respective basal | NOREPINEPHRIN in dialysate, individual animals (T6 h 30-T7 h): 213.29 % of respective basal and 124.07 % of respective basal and 158.87 % of respective basal and 80.73 % of respective basal and 98.24 % of respective basal and 109.09 % of respective basal and 106.66 % of respective basal and 49.82 % of respective basal | NOREPINEPHRIN in dialysate, individual animals (T6 h-T6 h 30): 98.91 % of respective basal and 59.68 % of respective basal | NOREPINEPHRIN in dialysate, individual animals (T-30 min-T0 (pre-dose)): 86.88 % of respective basal and 96.74 % of respective basal and 99.36 % of respective basal and 96.59 % of respective basal and 87.30 % of respective basal and 92.37 % of respective basal and 88.10 % of respective basal and 83.32 % of respective basal | NOREPINEPHRIN in dialysate, individual animals (T-1 h 30-T-1 h (pre-dose)): 123.08 % of respective basal and 109.14 % of respective basal and 102.00 % of respective basal and 104.00 % of respective basal and 103.03 % of respective basal (2×) and 112.64 % of respective basal and 118.36 % of respective basal | NOREPINEPHRIN in dialysate, individual animals (T-1 h-T-30 min (pre-dose)): 90.04 % of respective basal and 94.13 % of respective basal and 98.64 % of respective basal and 99.40 % of respective basal and 109.67 % of respective basal and 104.59 % of respective basal and 99.26 % of respective basal and 98.32 % of respective basal
